About 5,400 (1.8%) of roughly 300,000 compounds were called active. The shares of active, inactive and inconclusive entries below differ from those in the screen. Calls follow the shape of the full dose curve; tested in HEK293 cells. A potency beside an inconclusive call is a rough fit, not a confirmed value.
assay: qHTS for inhibitors of binding or entry into cells for Marburg Virus; settings: Marburg virus pseudotyped entry inhibition, cell reporter; activity change, negative = inhibition: at 37.8 µM (top of the series) unless noted
% is scaled to controls: 0 for no effect and ±100 for the full control effect; potency is read from the fitted curve at half-maximal effect.

SMILES | Potency | activity change, negative = inhibition
Cc1cc(C(=O)N/N=C/c2cc(Br)c(Br)o2)n[nH]1 | inconclusive: 11.2 µM [activator, single point] | 
CCC(O)(CC)C(=O)N/N=C/c1cc(Br)cc(Br)c1O | inconclusive: 25.1 µM [inhibitor, single point] | 
CCN(/N=C/c1ccccc1)c1cc(=O)n(C)c(=O)[nH]1 | inconclusive: 8.91 µM [inhibitor, partial curve] | 
CCCCNC(=S)NCC(c1ccccc1)c1c[nH]c2ccccc12 (stereo unspecified) | inconclusive: 11.2 µM [inhibitor, partial curve, poor fit] | 
O=[N+]([O-])c1ccc(-n2nnnc2-c2ccccc2)c([N+](=O)[O-])c1 | active: 14.6 µM | 
CC(N)Cc1c[nH]c2cc3c(cc12)OCCO3 (stereo unspecified) | inconclusive: 0.501 µM [inhibitor, partial curve, poor fit] | 
COc1ccc(-n2nnnc2SC(C)C(N)=O)cc1 (stereo unspecified) |  | inactive: 1.33%
CCCCOc1cccc(C(=O)Nc2ccc(N3CCN(CC)CC3)cc2)c1 | inconclusive: 22.4 µM [inhibitor, single point] | 
C/C(=N/OC(=O)c1ccccc1Br)c1ccc(C)cc1 | inconclusive: 31.6 µM [activator, single point] | 
CCOC(=O)c1c(NC(=O)C(NCCN(C)C)c2ccccc2)sc2c1CCCC2 (stereo unspecified) | inconclusive: 7.94 µM [inhibitor, partial curve, poor fit] | 
Clc1ccccc1CSc1cc2c(nn1)-c1ccccc1CC2 | inconclusive: 1 µM [activator, partial curve, poor fit] | 
Cc1ccc(NC(=O)CN2C(=O)CSc3ccc(S(=O)(=O)N4CCCCC4)cc32)cc1 | inconclusive: 35.5 µM [inhibitor, single point] | 
C/C=C/Cn1cccc(C(=O)Nc2ccc(OC)cc2)c1=O |  | inactive: 7.27% [at 46.1 µM]
Oc1ccccc1Nc1ccccn1 | inconclusive: 5.62 µM [activator, single point] | 
CC(Sc1ccc(Cl)cc1)C(=O)NNC(=O)c1csc(N2CCOCC2)n1 (stereo unspecified) |  | inactive: -4.29%
C=CCOCCC=C1c2ccccc2[C@@H](OC)[C@@H]1C |  | inactive: -8.2% [at 14.2 µM]
COc1ccc(-c2nc(NC(=O)CSc3nnc(C)s3)ns2)cc1 |  | inactive: 26.6%
CCOC(=O)N1CCN(C(=O)CSCc2ccccc2Cl)CC1 | inconclusive: 7.08 µM [activator, partial curve, poor fit] | 
CCN1/C(=C/c2sc(-c3ccccc3C)c[n+]2C)Sc2ccccc21 | inconclusive: 1.41 µM [inhibitor, full curve, poor fit] | 
C/C(=N\N1CCN(Cc2ccccc2Cl)CC1)c1ccc(F)cc1 | inconclusive: 5.62 µM [inhibitor, single point] | 
COc1ccc2nc(NC(=O)c3cccc(OCc4c(C)noc4C)c3)sc2c1 | inconclusive: 5.62 µM [inhibitor, full curve, poor fit] | 
CCc1ccc(NC(=O)c2cc(C(C)C)on2)cc1 | inconclusive: 1.16 µM [activator, single point] | 
COc1ccccc1/C=N/NC(=O)c1sc(C)nc1C | inconclusive: 0.501 µM [inhibitor, full curve, poor fit] | 
Cc1cc(C(=O)NNC(=O)c2ccc(C(F)(F)F)cc2)no1 |  | inactive: 18% [at 46.1 µM]

SMILES | Potency | activity change, negative = inhibition
CCOC(=O)/C=c1\s/c(=C\c2ccccc2OC)c(=O)n1CC(=O)N1CCOCC1 | inconclusive: 5.62 µM [activator, single point] | 
CN(C)S(=O)(=O)c1ccc(-c2cn3ccccc3n2)cc1 | inconclusive: 23.1 µM [activator, partial curve, poor fit] | 
Cc1cc(NC(=O)c2ccc3c(c2)OCO3)no1 | inconclusive: 0.316 µM [inhibitor, partial curve, poor fit] | 
Cc1cc(C(C)(C)C)cc(C)c1COC(=O)c1cccnc1 | inconclusive: 25.1 µM [inhibitor, single point] | 
Clc1ccc2c(N/N=C/c3ccccc3Br)ccnc2c1 | inconclusive: 0.0891 µM [inhibitor, full curve, poor fit] | 
CCSc1nnc(NC(=O)c2ccco2)s1 | inactive | 
C=CCN1C(C(=O)c2ccccc2)=C(OC(=O)COc2ccccc2)c2ccccc2S1(=O)=O | inconclusive: 20 µM [inhibitor, partial curve, poor fit] | 
CSCCC(=O)Nc1nc(-c2ccccn2)cs1 |  | inactive: 9.2%
CN(c1ccccc1)S(=O)(=O)c1cccc(C(=O)NNC(=O)c2ccccc2)c1 | inconclusive: 35.5 µM [inhibitor, single point] | 
CCOC(=O)c1sc(NC(=O)Nc2ccccc2Cl)cc1C | inconclusive: 2.51 µM [inhibitor, partial curve, poor fit] | 
CC1CCN(c2ccccc2NC(=S)NC(=O)c2ccco2)CC1 | inconclusive: 3.55 µM [inhibitor, partial curve, poor fit] | 
Cc1cccc2cc(C(c3nnnn3CC3CCCO3)N3CCCc4ccccc43)c(=O)[nH]c12 (stereo unspecified) | inconclusive: 23.1 µM [inhibitor, single point] | 
CCN(CC)S(=O)(=O)c1cc(C(=O)Nc2cc(Cl)ccc2N2CCN(C)CC2)ccc1Cl |  | inactive: -0.155%
NNC(=O)c1cc2sccc2s1 | inconclusive: 1.26 µM [inhibitor, full curve, poor fit] | 
COc1cc2c(cc1OC)C(c1ccccc1)CN(C)CC2 (stereo unspecified) | inconclusive: 12.6 µM [inhibitor, partial curve] | 
O=C(Nc1cccnc1)c1cc(F)c(F)cc1Cl |  | inactive: 0.0747% [at 46.1 µM]
CC1(C)N=C(SCC(=O)Nc2ccc(Cl)cc2)C(c2ccc(Cl)cc2)=N1 |  | inactive: -24.1%
CSc1ccccc1OCc1cc(C(=O)N(C)Cc2ccc3nsnc3c2)no1 |  | inactive: 2.81%
CCOC(=O)c1ccc(NC(=O)Nc2c(C)n(C)n(-c3ccccc3)c2=O)cc1 |  | inactive: 1.18%
Cn1c(=O)c2c(nc(CN3CCN(c4ccccc4)CC3)n2Cc2c(F)cccc2Cl)n(C)c1=O | inconclusive: 32.6 µM [inhibitor, single point] | 
O=C(NCc1cccnc1)c1cc(Sc2cccc(Cl)c2)nc2ccccc12 | inconclusive: 14.1 µM [inhibitor, partial curve, poor fit] | 
COC(=O)c1sc(-c2ccccc2)cc1NC(=O)Nc1ccc(Cl)cc1 |  | inactive: 17.8% [at 46.1 µM]
COc1ccc(C(=O)Nc2cc3c4c(c2)CC(=O)N4CCC3)c(OC)c1 |  | inactive: 8.58%
c1ccc(CC2CCCNC2)cc1 (stereo unspecified) |  | inactive: 16.3% [at 46.1 µM]

SMILES | Potency | activity change, negative = inhibition
COc1cc2nc(Nc3cccc(C)c3)nc(N)c2cc1OC | inconclusive: 15.8 µM [inhibitor, single point] | 
CCC(C)Sc1nc2c(c(=O)[nH]c(=O)n2C)n1CC(O)COc1ccccc1C (stereo unspecified) | inconclusive: 13 µM [inhibitor, partial curve] | 
CC(CCc1ccccn1)C(=O)C(C)CCc1ccccn1 (stereo unspecified) | inconclusive: 22.4 µM [inhibitor, single point] | 
Cc1ccc(-c2noc(-c3ccccc3NC(=O)C3CC(=O)N(c4ccc(C)cc4)C3)n2)cc1 (stereo unspecified) |  | inactive: -12.1% [at 46.1 µM]
Cc1ccccc1-c1nc(CN2C(=O)CN=C(c3ccccc3)c3ccccc32)c(C)o1 | inconclusive: 10 µM [inhibitor, partial curve, poor fit] | 
Cc1ccc(S(=O)(=O)CCC(=O)OCc2nnc(-c3ccc([N+](=O)[O-])cc3)o2)cc1 |  | inactive: -0.555%
CCC(=O)n1nc(NCc2ccc(OC)c(OC)c2)nc1NCc1ccc(OC)c(OC)c1 |  | inactive: -6.59%
O=C(O)Cc1sc(-c2ccc(Cl)cc2)nc1-c1ccccc1 |  | inactive: 5.93%
CC(/C=C/c1ccccc1F)=N\NC(=O)C(C)C | inconclusive: 0.326 µM [activator, full curve, poor fit] | 
C=CCN(C)C1=NC(c2ccccc2)C(C(=O)OC)=C(C)N1CCOC (stereo unspecified) |  | inactive: 3.81% [at 14.2 µM]
O=C(c1ccc2snnc2c1)N1CCCC1 | inconclusive: 20 µM [activator, partial curve, poor fit] | 
CCOc1ccc(C(=O)NCCc2ccccc2)cc1 | inconclusive: 5.8 µM [inhibitor, partial curve, poor fit] | 
Cc1ccc2nc(-c3ccccc3)cc(C(=O)NCC(c3ccco3)N(C)C)c2c1 (stereo unspecified) | inconclusive: 35.5 µM [inhibitor, single point] | 
COc1ccccc1C(NC(=O)C1CCCCC1)c1c(O)ccc2ccccc12 (stereo unspecified) | inconclusive: 3.55 µM [inhibitor, partial curve, poor fit] | 
CN(C)S(=O)(=O)c1cccc(NC(=O)/C=C/c2ccc(S(=O)(=O)N3CCOCC3)cc2)c1 | inconclusive: 35.5 µM [inhibitor, single point] | 
CCCOc1ccc(NC(=O)OC2CCN(C)CC2)cc1 | inconclusive: 3.55 µM [activator, partial curve, poor fit] | 
CCOCCCNC(=O)c1ccc(OC(C)=O)cc1 | inconclusive: 0.73 µM [inhibitor, partial curve, poor fit] | 
Cc1nn(-c2ccccc2)c2sc(C(=O)Nc3ccc(Br)cc3)cc12 |  | inactive: -1.85% [at 46.1 µM]
O=C1COc2ccc(-c3cc(-c4ccccc4)c4c(n3)-c3ccccc3OC4)cc2N1 |  | inactive: 7.97% [at 46.1 µM]
C[n+]1c(-c2ccccc2)cc2c(=Cc3ccc([N+](=O)[O-])cc3)c3ccccc3n21 | inconclusive: 12.6 µM [inhibitor, partial curve, poor fit] | 
Cn1cc([N+](=O)[O-])c(C(=O)N/N=C\c2c[nH]c3ccccc23)n1 |  | inactive: -2.05% [at 46.1 µM]
Cc1ccc(S(=O)(=O)NCCn2nc(C)cc2C)cc1 |  | inactive: 17.2% [at 46.1 µM]
O=C(N=Nc1c(O)[nH]c2ccc(Cl)cc12)c1cc(-c2cccs2)nc2ccccc12 | inconclusive: 0.1 µM [inhibitor, full curve, poor fit] | 

2 compounds drawn at random from the list so far, as already listed:
SMILES | Potency | activity change, negative = inhibition
O=C(c1ccc2snnc2c1)N1CCCC1 | inconclusive: 20 µM [activator, partial curve, poor fit] | 
O=C(O)Cc1sc(-c2ccc(Cl)cc2)nc1-c1ccccc1 |  | inactive: 5.93%

As entered above.
Under activity change, negative = inhibition, Cc1ccc(S(=O)(=O)CCC(=O)OCc2nnc(-c3ccc([N+](=O)[O-])cc3)o2)cc1 is listed with inactive: -0.555%
Under activity change, negative = inhibition, O=C1COc2ccc(-c3cc(-c4ccccc4)c4c(n3)-c3ccccc3OC4)cc2N1 is listed with inactive: 7.97% [at 46.1 µM]
